Here are results for one compound from ChEMBL document CHEMBL3885861, “Open TG-GATES”.

The species named for data set [1] is Rattus norvegicus. The experiment in a line: Open TG-GATES - Regimen: Single. It counts as toxicity, organism-based, Sprague-Dawley. Details: regimen Single, gender Male, age 6 weeks. The following applies: in vivo, po, route gavage.
Data set [2] is filed under the species Rattus norvegicus. The experiment in a line: Open TG-GATES - Regimen: Daily Repeat. Type of data set: toxicity, organism-based, Sprague-Dawley. Details: regimen Daily Repeat, gender Male, age 6 weeks. The following applies: in vivo, po, route gavage.
The mark [3] stands for this setting: 100 mg/kg, 3 h, tissue Blood, dose level Low.

On to `COC(=O)C1=C(C)NC(C)=C(C(=O)OC)C1c1ccccc1[N+](=O)[O-]` [NIFEDIPINE], for which the Ca in the data set listed under Rattus norvegicus [1] (0 mg/kg, 6 h, tissue Plasma, dose level Control) was found to be 10.5 mg/dL; in the data set filed under Rattus norvegicus [2] (0 mg/kg, […], tissue Plasma, dose level Control, time 14 day), 11.2 mg/dL; in the data set listed under Rattus norvegicus [2] (1000 mg/kg, 72 h, tissue Plasma, dose level High, time 3 day) it was 10.5 mg/dL; in the data set listed under Rattus norvegicus [2] (1000 mg/kg, […], tissue Plasma, dose level High, time 7 day) it was 10.5 mg/dL. For the same compound, in the data set listed under Rattus norvegicus [1] (setting [3]), the APTT is listed as 15.3 s. Besides, the Neu in the data set filed under Rattus norvegicus [1] (setting [3]) turned out to be 22.6%; in the data set filed under Rattus norvegicus [2] (100 mg/kg, […], tissue Blood, dose level Low, time 14 day), 22.6%. The same compound gave a BUN in the data set filed under Rattus norvegicus [1] (100 mg/kg, 3 h, tissue Plasma, dose level Low) of 23.2 mg/dL. The compound further gave an ALT in the data set filed under Rattus norvegicus [1] (1000 mg/kg, 9 h, tissue Plasma, dose level High) of 50.2 IU/L. Besides, the TG in the data set filed under Rattus norvegicus [2] (100 mg/kg, […], tissue Plasma, dose level Low, time 14 day) is listed as 114 mg/dL. This compound returned an LDH in the data set filed under Rattus norvegicus [2] (300 mg/kg, […], tissue Plasma, dose level Middle, time 7 day) of 98.4 IU/L. In the data set listed under Rattus norvegicus [2] (1000 mg/kg, 72 h, tissue Liver, dose level High, time 3 day), the LIVER came out at 11.2 g.
